Measured values published in publication PMC11615771.
For at least one entry, the source does not settle the construct or the ends of the probe. No signal at the amounts used counts as a negative.

Experiments:
GST-GhNFYA5 [1] = experiment: EMSA; details: 2 ug protein; EMSA: 2 ug GST-GhNFYA5, EMSA/Gel-Shift binding buffer (Beyotime GS005; composition, salt and pH not stated), 30 min, room temperature, 6.5% polyacrylamide gel; recombinant protein; protein details: GST (N-terminal, pGEX-4T); label: biotin (F and R strands)
GST-GhNFYA5 [2] = experiment: competition with a labelled probe; details: unlabeled, EMSA: 2 ug GST-GhNFYA5, EMSA/Gel-Shift binding buffer (Beyotime GS005; composition, salt and pH not stated), 30 min, room temperature, 6.5% polyacrylamide gel, recombinant protein, protein details: GST (N-terminal, pGEX-4T)

Row | Sequence | binding result (GST-GhNFYA5 [1]) | other results
1 | ATAGAATTCACATTAATTACACTTACAAATGGACCACCGATATACTTATAATGCC (double strand) [Probe2 GbOSM1 promoter CCGAT] | no binding | –
2 | ATAGAATTCACATTAATTACACTTACAAATGGACCACCCCTATACTTATAATGCC (double strand) [mComp mutant probe (unlabeled)] | – | binding result (GST-GhNFYA5 [2]; 100x and 200x excess over labeled Probe1, did not compete): no binding
3 | ATAGAATTCACATTAATTACACTTACAAATGGACCACCCCTATACTTATAATGCC (double strand) [Probe3 CCCCT mutant] | no binding | –
4 | ATAGAATTCACATTAATTACACTTACAAATGGACCACCAATATACTTATAATGCC (double strand) [Comp probe (unlabeled Probe1)] | – | binding result (GST-GhNFYA5 [2]; 100x and 200x excess over labeled Probe1): binds
5 | ATAGAATTCACATTAATTACACTTACAAATGGACCACCAATATACTTATAATGCC (double strand) [Probe1 GhOSM1 promoter CCAAT] | binds | –
